# According to patent publication US10040838B2 (JANSSEN PHARMACEUTICA NV, priority 2008, dated 2018):
# Test: general procedure: Fmoc solid-phase peptide synthesis; NovaSyn TGR; HBTU/NMM
# Conditions: whole synthesis, scale 0.1 mmol
substance,measurement,value
TKFTLSLDVPTNIMNLLFNIAKAKNLRCQAAANAHLMAQI-NH2,crude mass,408 mg
same,crude yield,92% yield
